Assay results as given in PubChem BioAssay AID540256 (National Center for Advancing Translational Sciences (NCATS), 2011).
The whole screen tested about 300,000 compounds, of which about 3,700 (1.2%) were called active. This list was built around the results that the source calls inconclusive (neither active nor inactive); the mix of calls is not that of the screen. The call rests on the fitted dose curve; tested in HEK293 cells. Potencies of inconclusive entries are doubtful fits and often do not repeat.

test: qHTS for Inhibitors of binding or entry into cells for Lassa Virus; conditions: Lassa virus pseudotype entry inhibition, cell reporter; series mostly up to 37.9 µM; further: nearly all actives have a fitted effect of over 50% in size
Potency means the concentration at half of the fitted maximal effect.

| SMILES | Potency |
| --- | --- |
| COCCn1c(SCC(=O)N2CCCc3ccccc32)nc2ccccc2c1=O | inactive |
| Nc1ncnc2nc(-c3ccc(N4CCOCC4)nc3)cc(-c3cccc(Br)c3)c12 | inconclusive: 5.17 µM [inhibitor, partial curve] |
| O=C(N/N=C(\c1ccccc1)c1ccccn1)c1ccccc1Cl | inconclusive: 17.8 µM [inhibitor, partial curve, poor fit] |
| Cc1cccc(NC(=O)c2ccc(S(=O)(=O)N(C)CC3CCCO3)cc2)c1C (stereo not drawn) | inconclusive: 25.1 µM [inhibitor, single point] |
| CCOc1cccc(-n2nnnc2-c2ccc(OC)cc2)c1 | inconclusive: 20.6 µM [inhibitor, single point] |
| NC(=O)C1(Nc2ccccc2)CCCC1 | inactive |
| Cc1ccc(S(=O)(=O)/N=C(\c2ccc(Cl)cc2)N2CCOCC2)cc1 | inconclusive: 5.62 µM [activator, partial curve, poor fit] |
| O=C(CC1CCCCC1)NCc1ccc(Cl)cc1 | inconclusive: 0.199 µM [activator, full curve, poor fit] |
| CN1CCc2nc(NC(=O)COc3ccc(C#N)cc3)sc2C1 | inconclusive: 1.26 µM [inhibitor, single point] |
| CCOC(=O)Nc1nc(C)c(C(=O)c2ccc(Cl)cc2)s1 | inactive |
| Cc1ccc(C(=O)Nc2sc3c(c2C(=O)O)CCCCC3)o1 | active: 7.94 µM |
| Cc1ccc(N(C(=O)CNC(=O)c2ccco2)C(C(=O)NC2CCCC2)c2cccnc2)cc1F (stereo not drawn) | inconclusive: 1.26 µM [inhibitor, single point] |
| Cc1ccc(C)c(N2CCN(S(=O)(=O)c3ccc4[nH]c(=O)c(=O)[nH]c4c3)CC2)c1 | inconclusive: 29.1 µM [activator, single point] |
| CC(OC(=O)c1ccco1)C(=O)NCc1cccs1 (stereo not drawn) | inactive |
| O=C(Nc1cc(Cl)ccc1Cl)c1cc(S(=O)(=O)N2CCc3ccccc3C2)ccc1F | inconclusive: 3.55 µM [activator, partial curve, poor fit] |
| COc1ccc(-c2csc(Nc3cc(C)ccn3)n2)cc1OC | inactive |
| NC(=S)NC(=O)/C=C/c1ccccc1 | inactive |
| O=C(CSc1ncn[nH]1)c1ccco1 | inactive |
| CN1C(=O)/C(=C/c2ccc(N3CCCCCC3)o2)C(=O)NC1=S | inconclusive: 1.83 µM [activator, partial curve, poor fit] |
| O=C(Nc1ccc(Cl)cc1)OC[C@@H]1CSCCS(=O)(=O)N1 | inconclusive: 6.28 µM [activator, full curve, poor fit] |
| CCc1[nH]nc(C(=O)NC2CCCc3c2cnn3-c2cc(C)cc(C)c2)c1C (stereo not drawn) | inconclusive: 3.55 µM [inhibitor, full curve, poor fit] |
| COc1ccc2oc(-c3ccc(NC(=O)c4ccc(Cl)cc4Cl)cc3)nc2c1 | inactive |
| CCN(CC)C(=O)Cn1cc(S(=O)(=O)CC(=O)NC2CCCCC2)c2ccccc21 | inactive |

| SMILES | Potency |
| --- | --- |
| COc1ccc(NS(=O)(=O)c2cc(NS(=O)(=O)c3cccs3)ccc2C)cc1 | inactive |
| CCOc1ccc(-c2n[nH]c(C)c2Oc2ccc(OC)cc2)c(O)c1 | inconclusive: 2.82 µM [inhibitor, partial curve, poor fit] |
| CCOc1ccc(/C=C/c2nc(C#N)c(N3CCC(C)CC3)o2)cc1 | inconclusive: 12.6 µM [inhibitor, partial curve, poor fit] |
| O=C(N/N=C/c1ccc(Br)cc1)c1ccccc1-n1cccc1 | inconclusive: 11.6 µM [inhibitor, partial curve, poor fit] |
| CCc1ccc(Sc2cc(C(=O)NCCCN3CCC(C)CC3)c3ccccc3n2)cc1 | inconclusive: 35.5 µM [inhibitor, single point] |
| Cc1nnc(SCC(=O)NCc2ccccc2)s1 | inactive |
| COc1cc(NC(=O)CCS(=O)(=O)c2ccc3c(c2)n(C)c(=O)c(=O)n3C)cc(OC)c1 | inactive |
| COc1ccc(N2C(=O)C(CC(=O)Nc3ccccc3)N(Cc3ccccn3)C2=S)cc1 (stereo not drawn) | inconclusive: 17.8 µM [inhibitor, single point] |
| CN1CCc2nc3sc(C(=O)NC(C)(C)C)c(N)c3cc2C1 | inconclusive: 0.326 µM [activator, full curve, poor fit] |
| CCOc1ccc(Sc2cc(C(=O)NCc3ccccc3Cl)c3ccccc3n2)cc1 | inactive |
| CN(C)c1ccc(/C=N/NC(=O)c2ccc(CN3CCOCC3)cc2)cc1Br | inconclusive: 35.5 µM [inhibitor, single point] |
| CN(CC(=O)N1CCN(Cc2ccccc2)CC1)C(=O)Cc1ccc(Cl)c(Cl)c1 | inactive |
| Cc1ccc(-c2cc3nc4c(c(=O)n3[nH]2)CCCC4)cc1 | inconclusive: 3.55 µM [inhibitor, single point] |
| Cc1ccccc1NC(=O)CCn1nc(-c2ccccc2)c2ccccc2c1=O | inconclusive: 7.94 µM [activator, partial curve, poor fit] |
| COc1ccc(/C=C2/C(=N)N3C(=NC2=O)Sc2cc(S(C)(=O)=O)ccc23)cc1OC | inconclusive: 0.891 µM [activator, full curve, poor fit] |
| COc1cccc(/C=C/C(=O)c2ccc[nH]2)c1 | inconclusive: 5.62 µM [activator, single point] |
| CCOc1ccc(CC2c3cc(OCC)c(OCC)cc3CCN2C(=O)CN2CCN(C)CC2)cc1OCC (stereo not drawn) | inconclusive: 8.91 µM [inhibitor, partial curve, poor fit] |
| O=C(c1ccc2c(c1)OCO2)N(CC1CCCO1)C1(C(=O)NC2CCCC2)CCCCC1 (stereo not drawn) | inconclusive: 25.9 µM [activator, partial curve] |
| CCNc1nc2c(c(=O)n(C)c(=O)n2C)n1CCCc1ccccc1 | inconclusive: 35.5 µM [inhibitor, partial curve, poor fit] |
| Cc1nnc(SCC(=O)Nc2ccc(N(C)C)cc2)[nH]c1=O | inactive |
| O=C(NCCC1=CCCCC1)c1cccc(S(=O)(=O)N2CCCCC2)c1 | inconclusive: 35.5 µM [inhibitor, single point] |
| CCC(C)NC(=O)c1ccccc1NC(=O)COc1ccc(OC)cc1 (stereo not drawn) | inconclusive: 3.98 µM [inhibitor, partial curve, poor fit] |
| O=C(CN1CCOCC1)Nc1scc2c1c(=O)oc1ccccc12 | inconclusive: 1.26 µM [inhibitor, full curve, poor fit] |

No new results follow: an excerpt of the list.

| SMILES | Potency |
| --- | --- |
| Cc1ccc(N(C(=O)CNC(=O)c2ccco2)C(C(=O)NC2CCCC2)c2cccnc2)cc1F (stereo not drawn) | inconclusive: 1.26 µM [inhibitor, single point] |
| Cc1ccc(C)c(N2CCN(S(=O)(=O)c3ccc4[nH]c(=O)c(=O)[nH]c4c3)CC2)c1 | inconclusive: 29.1 µM [activator, single point] |
| CC(OC(=O)c1ccco1)C(=O)NCc1cccs1 (stereo not drawn) | inactive |
| O=C(Nc1cc(Cl)ccc1Cl)c1cc(S(=O)(=O)N2CCc3ccccc3C2)ccc1F | inconclusive: 3.55 µM [activator, partial curve, poor fit] |

Continuation.

| SMILES | Potency |
| --- | --- |
| CCN(CC)CCOC(=O)c1ccc(NC(=O)c2cc3cc(OC)ccc3oc2=O)cc1 | inactive |
| CC(C)Oc1cccc(C(=O)C2CCCN(Cc3cccn3-c3ccccn3)C2)c1 (stereo not drawn) | active: 11.2 µM |
| Cc1ccccc1N1CC(c2nc3ccccc3n2Cc2ccc(Br)cc2)CC1=O (stereo not drawn) | inconclusive: 5.62 µM [activator, single point] |
| Cc1cc(Br)ccc1NC(=O)c1c(C)oc2ncnc(N3CCCCC3)c12 | inactive |
| CC1CCN(C(=O)c2ccc(NS(=O)(=O)c3ccccc3)cc2)CC1 | inconclusive: 15.8 µM [inhibitor, single point] |
| CCC(=O)N(C(=O)CC)N1CCN(c2ccncc2S(=O)(=O)N2CCCCC2)CC1 | inconclusive: 6.31 µM [inhibitor, single point] |
| Cc1cc(NC(=O)c2cc(-c3ccc(Cl)c(Cl)c3)on2)n(-c2ccccc2)n1 | inactive |
| CCOc1ccc(CNC(=O)C2CCN(C(=O)N3CC(CC)Oc4ccc(C)cc43)CC2)cc1OC (stereo not drawn) | inconclusive: 10 µM [inhibitor, partial curve, poor fit] |
| COc1ccc(OC)c2c(C)cc(N3CCCCCC3)nc12 | inconclusive: 12.6 µM [inhibitor, partial curve, poor fit] |
| COc1ccc2[nH]c(=O)c(CN(C(=O)c3cccnc3)c3cc(C)ccc3C)cc2c1 | inconclusive: 2.51 µM [inhibitor, full curve] |
| COC(=O)c1c(-c2cccs2)csc1NC(=O)c1ccc(C)cc1 | inconclusive: 6.31 µM [activator, single point] |
| O=C(Cn1c(-c2cccs2)cc2ccccc21)N1CCN(c2ccc(F)cc2)CC1 | inconclusive: 3.98 µM [inhibitor, partial curve, poor fit] |
| O=C(CCCN1C(=O)/C(=C/c2ccccc2Cl)SC1=S)NNC(=O)c1ccccc1 | inconclusive: 10 µM [inhibitor, partial curve, poor fit] |
| CCN(CC)c1ccc(/C=N/NC(=O)Cc2cccs2)cc1 | inactive |
| O=C(c1ccc(NC(=O)C2(c3ccccc3)CCCC2)cc1)N1CCOCC1 | inconclusive: 6.31 µM [inhibitor, full curve] |
| N=c1ccn(Cc2ccc(Cl)c(Cl)c2)cc1 | inactive |
| Cc1ccccc1CNC(=O)c1ccc2ccccc2n1 | inconclusive: 10 µM [inhibitor, partial curve, poor fit] |
| Cc1ccc(CNC(=O)CCCN2C(=O)CCn3nc(-c4cccn4C)cc32)cc1 | inactive |
| CC(C)(C)C1CCC(=NNC(=O)c2cc3c(s2)CCCC3)CC1 (stereo not drawn) | inconclusive: 35.5 µM [inhibitor, partial curve, poor fit] |
| Cc1cc(C)cc(NC(=O)C(c2ccccc2)N2CCN(CC(=O)NC3CC3)CC2)c1 (stereo not drawn) | inconclusive: 14.1 µM [inhibitor, partial curve, poor fit] |
| CN1CCN(c2nc(Nc3cccc(C(F)(F)F)c3)nc(N3CCOCC3)n2)CC1 | inconclusive: 16.4 µM [inhibitor, single point] |
| C/C(=N\NC(=S)NCc1ccccc1)c1ccc(C(C)(C)C)cc1 | active: 0.461 µM |
